Measured values as given in the supplement of paper PMC12823440, “Inhibitors supercharge kinase turnover through native proteolytic circuits” (Nature, 2025).
Counter-ions that a name gives are not always drawn. The list shows a part of the results. The calls rarely recur for the same compound in another form.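 In K562 cells expressing nanoluciferase-fused kinases, luminescence was recorded at 4 h intervals between 2 and 18 h, normalized as percent of control with DMSO at 100% and a positive control at 0%. A significant (2 sigma) signal drop marks a time point as decreased. The authors' rule for a hit is not shown and takes in more than the number of time points.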

Biological target: EGFR_L858R (UniProt P00533)
Experiment: kinase-Nluc reporter destabilization hit call (1 = scored as downregulated) (binary); higher = compound decreases kinase abundance
Settings: K562; 2-18 h

kinase-Nluc reporter destabilization hit call, inactive:
CC#CC(=O)N[C@H]1CCCN(c2c(F)cc(C(N)=O)c3[nH]c(C)c(C)c23)C1 [Branebrutinib] (10 µM) 0, O=C1NC(=NCc2cccs2)S/C1=C\c1ccc2ncccc2c1 (10 µM) 0, Cn1c(=O)n(-c2ccc(C(C)(C)C#N)cc2)c2c3cc(-c4cnc5ccccc5c4)ccc3ncc21 [Dactolisib (Tosylate)] (10 µM) 0, COC(=O)c1ccc2c(C(=Nc3ccc(N(C)C(=O)CN4CCN(C)CC4)cc3)c3ccccc3)c(O)[nH]c2c1 [Nintedanib] (2.5 µM) 0, COc1cc2ncnc(Nc3ccc(O)cc3)c2cc1OC (10 µM) 0, O=C(c1ccc(-c2ccc(Cl)cc2)o1)N(Cc1ccccn1)c1ccc(N2CCNCC2)cc1 [MK2-IN-1 (hydrochloride)] (10 µM) 0, CN1CCN(S(=O)(=O)c2ccc(-c3cnc(N)c(C(=O)Nc4cccnc4)n3)cc2)CC1 (10 µM) 0, CN(C)C[C@@H]1CCn2cc(c3ccccc32)C2=C(C(=O)NC2=O)c2cn(c3ccccc23)CCO1 [Ruboxistaurin (hydrochloride)] (10 µM) 0, COc1ccc(Oc2cc(NCCC(F)(F)F)c3ncc(-c4ccc(C(=O)NC5CC5)c(C)c4)n3n2)c(F)c1F (2.5 µM) 0, CCCCNc1ncc(-c2ccc(CN3CCOCC3)cn2)c(NC2CCC(O)CC2)n1 (centres undefined) (10 µM) 0, O=C(Nc1cc(C(F)(F)F)ccc1N1CCN(Cc2ccccn2)CC1)c1ccc(-c2ccncc2)o1 (10 µM) 0, CC(C)(/C=C(\C#N)C(=O)N1CCC[C@@H](n2nc(-c3ccc(Oc4ccccc4)cc3F)c3c(N)ncnc32)C1)N1CCN(C2COC2)CC1 (2.5 µM) 0, CNC(=O)c1cccc2cc(Oc3ccnc4cc(OCC5(N)CC5)c(OC)cc34)ccc12 [Lucitanib] (10 µM) 0, COc1cc(F)cc([C@@H](CO)NC(=O)[C@@H](C)N2Cc3ccc(-c4nc(NC5CCOCC5)ncc4Cl)cc3C2=O)c1 [ERK1/2 inhibitor 2] (10 µM) 0, O=c1cc(-c2ccccc2)oc2c(O)c(O)ccc12 [7,8-Dihydroxyflavone] (10 µM) 0, C=CC(=O)N1CC[C@H](n2nc(C#Cc3cc(OC)cc(OC)c3)c3c(N)ncnc32)C1 [Futibatinib] (10 µM) 0, O=C1Nc2ccccc2/C1=C/c1ccc(F)cc1 (10 µM) 0, CN(C)Cc1ccc(-c2cnn3c(-c4cccc(NC(=O)c5cccc(C(F)(F)F)c5)c4)ccnc23)cc1 (2.5 µM) 0, Cc1c[nH]c(/C=C2\C(=O)Nc3ccccc32)c1CCC(=O)O (10 µM) 0, CC(C)c1ccc2oc3nc(N)c(C(=O)O)cc3c(=O)c2c1 [Amlexanox] (10 µM) 0, NS(=O)(=O)c1ccc(Nc2nc(OCC3CCCCC3)c3[nH]cnc3n2)cc1 (10 µM) 0, Cn1nc(C(C)(C)C)cc1NC(=O)Nc1ccc(Oc2ccncc2)cc1 (10 µM) 0, COc1ccc(F)c(F)c1C(=O)c1cnc(NC2CCN(S(C)(=O)=O)CC2)nc1N (2.5 µM) 0, COc1cc(C(=O)NC2CCN(C)CC2)ccc1Nc1ncc2c(n1)N(C1CCCC1)CC(F)(F)C(=O)N2C (10 µM) 0, CCN1C(=O)N(c2c(F)c(OC)cc(OC)c2F)Cc2cnc3[nH]c(CN4CCOCC4)cc3c21 [Pemigatinib] (10 µM) 0, COc1cc(Oc2ccnc3cc(OC)c(OC)cc23)ccc1NC(=O)NC(C)c1nccs1 (centres undefined) (2.5 µM) 0, C=CC(=O)N1C[C@H](Nc2ncnc3[nH]ccc23)CC[C@@H]1C [Ritlecitinib] (10 µM) 0, CC(C)(C)S(=O)(=O)c1cc2c(Nc3ccc4scnc4c3)ncnc2cc1OCCO (2.5 µM) 0, O=C(NOC[C@H](O)CO)c1ccc(F)c(F)c1Nc1ccc(I)cc1F (2.5 µM) 0, Cc1cccc([C@@H](CO)NC(=O)[C@@H](C)N2Cc3ccc(-c4nc(NC5CCOCC5)ncc4Cl)cc3C2=O)c1 [ERK1/2 inhibitor 1] (10 µM) 0, CNC(=O)c1cc(Oc2ccc(NC(=O)Nc3cc(C(C)(C)C)nn3-c3ccc4ncccc4c3)c(F)c2)ccn1 [Rebastinib] (2.5 µM) 0, CCCn1cnc2c(NCc3ccccc3)nc(NC(CC)CO)nc21 (centres undefined) [Ca2+ channel agonist 1] (2.5 µM) 0, Brc1c(Br)c(Br)c2n[nH]nc2c1Br (10 µM) 0, C=CC(=O)Nc1cccc(Nc2nc(Nc3ccc(OCCOC)cc3)ncc2F)c1 [Spebrutinib] (10 µM) 0, CC(C)=CC/C=C(\C)[C@H]1CC[C@]2(C)[C@@H]1[C@H](O)C[C@@H]1[C@@]3(C)CC[C@H](O[C@@H]4O[C@H](CO)[C@@H](O)[C@H](O)[C@H]4O[C@@H]4O[C@H](CO)[C@@H](O)[C@H](O)[C@H]4O)C(C)(C)[C@@H]3CC[C@]12C [Ginsenoside Rg5] (10 µM) 0, Cc1ncc(-c2ccnc(Nc3ccc(S(C)(=O)=O)cc3)n2)n1C(C)C (2.5 µM) 0, CN(C)CCOc1ccc(-c2nc(-c3ccncc3)c(-c3ccc4c(c3)CC/C4=N\O)[nH]2)cc1 (10 µM) 0, CCN(CCCOc1ccc2c(Nc3cc(CC(=O)Nc4cccc(F)c4)[nH]n3)ncnc2c1)CCOP(=O)(O)O [Barasertib] (10 µM) 0, C=CC(=O)N[C@H]1COC[C@H]1Nc1ncc2cc(-c3c(Cl)c(OC)cc(OC)c3Cl)c(=O)n(C)c2n1 (10 µM) 0
